PubChem BioAssay AID493246 – Drosophila RNAi Screening Center | 2011
The deposit covers about 21,000 reagents; this is an unselected part of those that have a named target and a result. Of all reagents, 429 (2%) are marked active. 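Values are raw and not normalised between plates; calls rest on per-plate z-scores that were not deposited.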 Names joined by + are all predicted targets of the reagent. No sequences are given here. Not given: the amount of reagent, the time to read-out.

Test: 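Genes fly cells need to grow and stay alive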 (primary screen)
Cell system: Drosophila Kc and S2R+ cells
Reagents: long dsRNA against Drosophila genes
Measured: 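Raw, unnormalised count of remaining cells in each well; per-plate z-scores of cell number underlie the calls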
Direction: Kc cell number and S2R+ cell number: higher = more cells remaining
Rule for the call: 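Active when the per-plate z-score of cell number is 3 or more in the direction of fewer cells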

CG42506 (retired record) + CG43759 [DRSC19464]
- Kc cell number, rep 1: 1.81e6
- Kc cell number, rep 2: 1.85e6
- S2R+ cell number, rep 1: 1.14e6
- S2R+ cell number, rep 2: 1.19e6
- Outcome: inactive

CG42506 (retired record) + CG43759 [DRSC19543]
- Kc cell number, rep 1: 1.46e6
- Kc cell number, rep 2: 1.45e6
- S2R+ cell number, rep 1: 9.72e5
- S2R+ cell number, rep 2: 1.10e6
- Outcome: inactive

CG14545 [DRSC14889]
- Kc cell number, rep 1: 1.61e6
- Kc cell number, rep 2: 1.55e6
- S2R+ cell number, rep 1: 1.01e6
- S2R+ cell number, rep 2: 1.12e6
- Outcome: inactive

CG5909 [DRSC15914]
- Kc cell number, rep 1: 1.44e6
- Kc cell number, rep 2: 1.47e6
- S2R+ cell number, rep 1: 1.01e6
- S2R+ cell number, rep 2: 1.09e6
- Outcome: inactive

krz [DRSC16979]
- Kc cell number, rep 1: 1.68e6
- Kc cell number, rep 2: 1.69e6
- S2R+ cell number, rep 1: 1.04e6
- S2R+ cell number, rep 2: 1.07e6
- Outcome: inactive

Vha16-1 [DRSC05020]
- Kc cell number, rep 1: 1.56e6
- Kc cell number, rep 2: 1.62e6
- S2R+ cell number, rep 1: 1.35e6
- S2R+ cell number, rep 2: 1.49e6
- Outcome: inactive

ab [DRSC03478]
- Kc cell number, rep 1: 1.35e6
- Kc cell number, rep 2: 1.51e6
- S2R+ cell number, rep 1: 8.39e5
- S2R+ cell number, rep 2: 9.64e5
- Outcome: inactive

CheB74a [DRSC09503]
- Kc cell number, rep 1: 1.42e6
- Kc cell number, rep 2: 1.52e6
- S2R+ cell number, rep 1: 1.10e6
- S2R+ cell number, rep 2: 1.27e6
- Outcome: inactive

Next part; the last 2 above are carried over.
ab [DRSC03478]
- Kc cell number, rep 1: 1.35e6
- Kc cell number, rep 2: 1.51e6
- S2R+ cell number, rep 1: 8.39e5
- S2R+ cell number, rep 2: 9.64e5
- Outcome: inactive

CheB74a [DRSC09503]
- Kc cell number, rep 1: 1.42e6
- Kc cell number, rep 2: 1.52e6
- S2R+ cell number, rep 1: 1.10e6
- S2R+ cell number, rep 2: 1.27e6
- Outcome: inactive

CG42264 [DRSC18074]
- Kc cell number, rep 1: 1.39e6
- Kc cell number, rep 2: 1.52e6
- S2R+ cell number, rep 1: 1.06e6
- S2R+ cell number, rep 2: 1.18e6
- Outcome: inactive

CG42264 [DRSC18075]
- Kc cell number, rep 1: 1.57e6
- Kc cell number, rep 2: 1.58e6
- S2R+ cell number, rep 1: 1.06e6
- S2R+ cell number, rep 2: 1.19e6
- Outcome: inactive

CG34430 [DRSC06499]
- Kc cell number, rep 1: 1.52e6
- Kc cell number, rep 2: 1.61e6
- S2R+ cell number, rep 1: 1.22e6
- S2R+ cell number, rep 2: 1.35e6
- Outcome: inactive

org-1 [DRSC18810]
- Kc cell number, rep 1: 1.52e6
- Kc cell number, rep 2: 1.63e6
- S2R+ cell number, rep 1: 7.40e5
- S2R+ cell number, rep 2: 8.42e5
- Outcome: inactive

CG10874 [DRSC00297]
- Kc cell number, rep 1: 1.65e6
- Kc cell number, rep 2: 1.66e6
- S2R+ cell number, rep 1: 1.09e6
- S2R+ cell number, rep 2: 1.18e6
- Outcome: inactive

CG42521 [DRSC10154]
- Kc cell number, rep 1: 1.74e6
- Kc cell number, rep 2: 1.74e6
- S2R+ cell number, rep 1: 1.40e6
- S2R+ cell number, rep 2: 1.58e6
- Outcome: inactive

CG7069 [DRSC16188]
- Kc cell number, rep 1: 1.49e6
- Kc cell number, rep 2: 1.60e6
- S2R+ cell number, rep 1: 1.14e6
- S2R+ cell number, rep 2: 1.17e6
- Outcome: inactive

Sur-8 [DRSC15794]
- Kc cell number, rep 1: 1.32e6
- Kc cell number, rep 2: 1.37e6
- S2R+ cell number, rep 1: 1.23e6
- S2R+ cell number, rep 2: 1.35e6
- Outcome: inactive

ftz [DRSC12626]
- Kc cell number, rep 1: 1.52e6
- Kc cell number, rep 2: 1.69e6
- S2R+ cell number, rep 1: 1.38e6
- S2R+ cell number, rep 2: 1.60e6
- Outcome: inactive

Ubx [DRSC16891]
- Kc cell number, rep 1: 1.36e6
- Kc cell number, rep 2: 1.30e6
- S2R+ cell number, rep 1: 1.01e6
- S2R+ cell number, rep 2: 1.05e6
- Outcome: inactive

trsn [DRSC06078]
- Kc cell number, rep 1: 1.73e6
- Kc cell number, rep 2: 1.70e6
- S2R+ cell number, rep 1: 1.39e6
- S2R+ cell number, rep 2: 1.55e6
- Outcome: inactive

Cpr49Ab [DRSC05341]
- Kc cell number, rep 1: 1.52e6
- Kc cell number, rep 2: 1.54e6
- S2R+ cell number, rep 1: 1.01e6
- S2R+ cell number, rep 2: 1.12e6
- Outcome: inactive

Dhod [DRSC16647]
- Kc cell number, rep 1: 1.47e6
- Kc cell number, rep 2: 1.59e6
- S2R+ cell number, rep 1: 1.34e6
- S2R+ cell number, rep 2: 1.31e6
- Outcome: inactive
